From US20250145665A1, “MACROCYCLIC PEPTIDES USEFUL AS MODULATORS OF TNF ALPHA” (Bristol-Myers Squibb Company, priority 2023, published 2025)
Some of these results come from one statement about several compounds together. Positions of bridges follow the written chain, without caps; N, C: chain ends. Non-standard residues stand in square brackets, D forms with d. Residues, ends and D or L forms follow the SMILES beside them. Bip(4'-NHAc) = CC(=O)Nc1ccc(-c2ccc(C[C@H](N)C(=O)O)cc2)cc1; Ala(morpholin-4-yl) = N[C@@H](CN1CCOCC1)C(=O)O; Bip = N[C@@H](Cc1ccc(-c2ccccc2)cc1)C(=O)O; Val(3-OH) = CC(C)(O)[C@H](N)C(=O)O; Hyp = O=C(O)[C@@H]1C[C@@H](O)CN1; 4Pal = N[C@@H](Cc1ccncc1)C(=O)O; Tic = O=C(O)[C@@H]1Cc2ccccc2CN1; Aze = O=C(O)[C@@H]1CCN1; Sar = CNCC(=O)O

Protein sequences, listed by entry. Tags and fused reporters are not part of them. Residues count along the entry.
UniProt P01375, 77-233 limits assumed: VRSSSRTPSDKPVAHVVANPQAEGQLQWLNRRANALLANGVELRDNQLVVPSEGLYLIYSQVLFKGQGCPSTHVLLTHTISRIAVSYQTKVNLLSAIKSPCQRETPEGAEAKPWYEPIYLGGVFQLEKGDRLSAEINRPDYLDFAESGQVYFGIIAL

These molecules were tested against TNFα (Homo sapiens, UniProt P01375) (assay: TNF-Induced HEK-Blue Assay). Conditions: summary statement for all examples; read-out: IC50 values measured in the TNF induced HEK-Blue assay.
Assay type: cell-based

IC50, ≤ 25 µM:
CC(C)C[C@@H]1NC(=O)[C@H](Cc2ccc(O)cc2)NC(=O)[C@H](C(C)C)NC(=O)[C@@H]2CCCN2C(=O)[C@H](C(C)C)NC(=O)[C@@H](CCCNC(=N)N)NC(=O)[C@H](CC(=O)O)NC(=O)[C@H](Cc2ccc(O)cc2)NC(=O)CN(C)C(=O)[C@H](Cc2ccc(-c3ccccc3)cc2)NC(=O)[C@H](Cc2ccc(-c3ccccc3)cc2)NC(=O)[C@H](C(C)(C)O)NC(=O)CSC[C@@H](C(=O)NCC(N)=O)NC1=O [Example 69] ({CH2CO}-[Val(3-OH)][Bip][Bip][Sar]YD[dR]VPVYLCG-NH2; thioether N-13)
CC(C)C[C@@H]1NC(=O)[C@H](CCCNC(=N)N)NC(=O)[C@H](C(C)C)NC(=O)[C@@H]2C[C@@H](O)CN2C(=O)[C@H](C(C)C)NC(=O)[C@H](CCCNC(=N)N)NC(=O)[C@H](CC(=O)O)NC(=O)[C@@H]2CCCN2C(=O)CN(C)C(=O)[C@H](Cc2ccc(-c3ccccc3)cc2)NC(=O)[C@H](Cc2ccc(-c3ccccc3)cc2)NC(=O)[C@H](CN2CCOCC2)NC(=O)CSC[C@@H](C(=O)NCC(N)=O)NC1=O [Example 70] ({CH2CO}-[Ala(morpholin-4-yl)][Bip][Bip][Sar]PDRV[Hyp]VRLCG-NH2; thioether N-13)
CC(C)C[C@@H]1NC(=O)[C@H](CCCNC(=N)N)NC(=O)[C@H](C(C)C)NC(=O)[C@@H]2Cc3ccccc3CN2C(=O)[C@H](C(C)C)NC(=O)[C@H](CCCNC(=N)N)NC(=O)[C@H](CC(=O)O)NC(=O)[C@@H]2CCCN2C(=O)CN(C)C(=O)[C@H](Cc2ccc(-c3ccccc3)cc2)NC(=O)[C@H](Cc2ccc(-c3ccccc3)cc2)NC(=O)[C@H](CN2CCOCC2)NC(=O)CSC[C@@H](C(=O)NCC(N)=O)NC1=O [Example 71] ({CH2CO}-[Ala(morpholin-4-yl)][Bip][Bip][Sar]PDRV[Tic]VRLCG-NH2; thioether N-13)
CC(C)C[C@@H]1NC(=O)[C@H](CCCNC(=N)N)NC(=O)[C@H](C(C)C)NC(=O)[C@@H]2CCN2C(=O)[C@H](C(C)C)NC(=O)[C@H](CCCNC(=N)N)NC(=O)[C@H](CC(=O)O)NC(=O)[C@@H]2CCCN2C(=O)CN(C)C(=O)[C@H](Cc2ccc(-c3ccccc3)cc2)NC(=O)[C@H](Cc2ccc(-c3ccccc3)cc2)NC(=O)[C@H](CN2CCOCC2)NC(=O)CSC[C@@H](C(=O)NCC(N)=O)NC1=O [Example 72] ({CH2CO}-[Ala(morpholin-4-yl)][Bip][Bip][Sar]PDRV[Aze]VRLCG-NH2; thioether N-13)
CC(C)C[C@@H]1NC(=O)[C@H](Cc2ccc(O)cc2)NC(=O)[C@H](C(C)C)NC(=O)[C@@H]2C[C@@H](O)CN2C(=O)[C@H](C(C)C)NC(=O)[C@H](CCCNC(=N)N)NC(=O)[C@H](CC(=O)O)NC(=O)[C@H](Cc2ccc(O)cc2)NC(=O)CN(C)C(=O)[C@H](Cc2ccc(-c3ccccc3)cc2)NC(=O)[C@H](Cc2ccc(-c3ccccc3)cc2)NC(=O)[C@H](CN2CCOCC2)NC(=O)CSC[C@@H](C(=O)NCC(N)=O)NC1=O [Example 73] ({CH2CO}-[Ala(morpholin-4-yl)][Bip][Bip][Sar]YDRV[Hyp]VYLCG-NH2; thioether N-13)
CC(C)C[C@@H]1NC(=O)[C@H](Cc2ccc(O)cc2)NC(=O)[C@H](C(C)C)NC(=O)[C@@H]2Cc3ccccc3CN2C(=O)[C@H](C(C)C)NC(=O)[C@H](CCCNC(=N)N)NC(=O)[C@H](CC(=O)O)NC(=O)[C@H](Cc2ccc(O)cc2)NC(=O)CN(C)C(=O)[C@H](Cc2ccc(-c3ccccc3)cc2)NC(=O)[C@H](Cc2ccc(-c3ccccc3)cc2)NC(=O)[C@H](CN2CCOCC2)NC(=O)CSC[C@@H](C(=O)NCC(N)=O)NC1=O [Example 74] ({CH2CO}-[Ala(morpholin-4-yl)][Bip][Bip][Sar]YDRV[Tic]VYLCG-NH2; thioether N-13)
CC(C)C[C@@H]1NC(=O)[C@H](Cc2ccc(O)cc2)NC(=O)[C@H](C(C)C)NC(=O)[C@@H]2CCN2C(=O)[C@H](C(C)C)NC(=O)[C@H](CCCNC(=N)N)NC(=O)[C@H](CC(=O)O)NC(=O)[C@H](Cc2ccc(O)cc2)NC(=O)CN(C)C(=O)[C@H](Cc2ccc(-c3ccccc3)cc2)NC(=O)[C@H](Cc2ccc(-c3ccccc3)cc2)NC(=O)[C@H](CN2CCOCC2)NC(=O)CSC[C@@H](C(=O)NCC(N)=O)NC1=O [Example 75] ({CH2CO}-[Ala(morpholin-4-yl)][Bip][Bip][Sar]YDRV[Aze]VYLCG-NH2; thioether N-13)
CC(C)C[C@@H]1NC(=O)[C@H](CCCNC(=N)N)NC(=O)[C@H](C(C)C)NC(=O)[C@@H]2CCCN2C(=O)[C@H](C(C)C)NC(=O)[C@@H](CCCNC(=N)N)NC(=O)[C@H](CC(=O)O)NC(=O)[C@H](Cc2ccc(O)cc2)NC(=O)CN(C)C(=O)[C@H](Cc2ccc(-c3ccccc3)cc2)NC(=O)[C@H](Cc2ccc(-c3ccccc3)cc2)NC(=O)[C@H](CN2CCOCC2)NC(=O)CSC[C@@H](C(=O)NCC(N)=O)NC1=O [Example 76] ({CH2CO}-[Ala(morpholin-4-yl)][Bip][Bip][Sar]YD[dR]VPVRLCG-NH2; thioether N-13)
CC(C)C[C@@H]1NC(=O)[C@H](Cc2ccc(O)cc2)NC(=O)[C@H](C(C)C)NC(=O)[C@@H]2CCCN2C(=O)[C@H](C(C)C)NC(=O)[C@@H](CCCNC(=N)N)NC(=O)[C@H](CC(=O)O)NC(=O)[C@@H]2CCCN2C(=O)CN(C)C(=O)[C@H](Cc2ccc(-c3ccccc3)cc2)NC(=O)[C@H](Cc2ccc(-c3ccccc3)cc2)NC(=O)[C@H](CN2CCOCC2)NC(=O)CSC[C@@H](C(=O)NCC(N)=O)NC1=O [Example 77] ({CH2CO}-[Ala(morpholin-4-yl)][Bip][Bip][Sar]PD[dR]VPVYLCG-NH2; thioether N-13)
CC(C)C[C@@H]1NC(=O)[C@H](Cc2ccc(O)cc2)NC(=O)[C@H](C(C)C)NC(=O)[C@@H]2C[C@@H](O)CN2C(=O)[C@H](C(C)C)NC(=O)[C@@H](CCCNC(=N)N)NC(=O)[C@H](CC(=O)O)NC(=O)[C@H](Cc2ccc(O)cc2)NC(=O)CN(C)C(=O)[C@H](Cc2ccc(-c3ccccc3)cc2)NC(=O)[C@H](Cc2ccc(-c3ccccc3)cc2)NC(=O)[C@H](CN2CCOCC2)NC(=O)CSC[C@@H](C(=O)NCC(N)=O)NC1=O [Example 78] ({CH2CO}-[Ala(morpholin-4-yl)][Bip][Bip][Sar]YD[dR]V[Hyp]VYLCG-NH2; thioether N-13)
CC(C)C[C@@H]1NC(=O)[C@H](Cc2ccc(O)cc2)NC(=O)[C@H](C(C)C)NC(=O)[C@@H]2CCN2C(=O)[C@H](C(C)C)NC(=O)[C@@H](CCCNC(=N)N)NC(=O)[C@H](CC(=O)O)NC(=O)[C@H](Cc2ccc(O)cc2)NC(=O)CN(C)C(=O)[C@H](Cc2ccc(-c3ccccc3)cc2)NC(=O)[C@H](Cc2ccc(-c3ccccc3)cc2)NC(=O)[C@H](CN2CCOCC2)NC(=O)CSC[C@@H](C(=O)NCC(N)=O)NC1=O [Example 79] ({CH2CO}-[Ala(morpholin-4-yl)][Bip][Bip][Sar]YD[dR]V[Aze]VYLCG-NH2; thioether N-13)
CC(C)C[C@@H]1NC(=O)[C@H](Cc2ccc(O)cc2)NC(=O)[C@H](C(C)C)NC(=O)[C@@H]2C[C@@H](O)CN2C(=O)[C@H](C(C)C)NC(=O)[C@@H](CCCNC(=N)N)NC(=O)[C@H](CC(=O)O)NC(=O)[C@@H]2CCCN2C(=O)CN(C)C(=O)[C@H](Cc2ccc(-c3ccccc3)cc2)NC(=O)[C@H](Cc2ccc(-c3ccccc3)cc2)NC(=O)[C@H](CN2CCOCC2)NC(=O)CSC[C@@H](C(=O)NCC(N)=O)NC1=O [Example 80] ({CH2CO}-[Ala(morpholin-4-yl)][Bip][Bip][Sar]PD[dR]V[Hyp]VYLCG-NH2; thioether N-13)
CC(C)C[C@@H]1NC(=O)[C@H](Cc2ccc(O)cc2)NC(=O)[C@H](C(C)C)NC(=O)[C@@H]2Cc3ccccc3CN2C(=O)[C@H](C(C)C)NC(=O)[C@@H](CCCNC(=N)N)NC(=O)[C@H](CC(=O)O)NC(=O)[C@@H]2CCCN2C(=O)CN(C)C(=O)[C@H](Cc2ccc(-c3ccccc3)cc2)NC(=O)[C@H](Cc2ccc(-c3ccccc3)cc2)NC(=O)[C@H](CN2CCOCC2)NC(=O)CSC[C@@H](C(=O)NCC(N)=O)NC1=O [Example 81] ({CH2CO}-[Ala(morpholin-4-yl)][Bip][Bip][Sar]PD[dR]V[Tic]VYLCG-NH2; thioether N-13)
CC(C)C[C@@H]1NC(=O)[C@H](Cc2ccc(O)cc2)NC(=O)[C@H](C(C)C)NC(=O)[C@@H]2CCN2C(=O)[C@H](C(C)C)NC(=O)[C@@H](CCCNC(=N)N)NC(=O)[C@H](CC(=O)O)NC(=O)[C@@H]2CCCN2C(=O)CN(C)C(=O)[C@H](Cc2ccc(-c3ccccc3)cc2)NC(=O)[C@H](Cc2ccc(-c3ccccc3)cc2)NC(=O)[C@H](CN2CCOCC2)NC(=O)CSC[C@@H](C(=O)NCC(N)=O)NC1=O [Example 82] ({CH2CO}-[Ala(morpholin-4-yl)][Bip][Bip][Sar]PD[dR]V[Aze]VYLCG-NH2; thioether N-13)
CC(C)C[C@@H]1NC(=O)[C@H](Cc2ccc(O)cc2)NC(=O)[C@H](C(C)C)NC(=O)[C@@H]2CCCN2C(=O)[C@H](CC(N)=O)NC(=O)[C@H](CCCNC(=N)N)NC(=O)[C@H](CC(=O)O)NC(=O)[C@H](Cc2ccc(O)cc2)NC(=O)CN(C)C(=O)[C@H](Cc2ccc(-c3ccccc3)cc2)NC(=O)[C@H](Cc2ccc(-c3ccccc3)cc2)NC(=O)[C@H](CN2CCOCC2)NC(=O)CSC[C@@H](C(=O)NCC(N)=O)NC1=O [Example 83] ({CH2CO}-[Ala(morpholin-4-yl)][Bip][Bip][Sar]YDRNPVYLCG-NH2; thioether N-13)
CC(=O)Nc1ccc(-c2ccc(C[C@@H]3NC(=O)[C@H](CN4CCOCC4)NC(=O)CSC[C@@H](C(=O)NCC(N)=O)NC(=O)[C@H](C(C)C)NC(=O)[C@H](CCCNC(=N)N)NC(=O)[C@H](C(C)C)NC(=O)[C@@H]4CCCN4C(=O)[C@H](C(C)C)NC(=O)[C@@H](CCCNC(=N)N)NC(=O)[C@H](CC(=O)O)NC(=O)[C@@H]4CCCN4C(=O)CN(C)C(=O)[C@H](Cc4ccc(-c5ccccc5)cc4)NC3=O)cc2)cc1 [Example 85] ({CH2CO}-[Ala(morpholin-4-yl)][Bip(4'-NHAc)][Bip][Sar]PD[dR]VPVRVCG-NH2; thioether N-13)
CC(C)[C@@H]1NC(=O)[C@H](CCCNC(=N)N)NC(=O)[C@H](C(C)C)NC(=O)[C@@H]2CCCN2C(=O)[C@H](C(C)C)NC(=O)[C@H](CCCNC(=N)N)NC(=O)[C@H](CC(=O)O)NC(=O)[C@@H]2CCCN2C(=O)CN(C)C(=O)[C@H](Cc2ccc(-c3ccccc3)cc2)NC(=O)[C@H](Cc2ccncc2)NC(=O)[C@H](CN2CCOCC2)NC(=O)CSC[C@@H](C(=O)NCC(N)=O)NC1=O [Example 86] ({CH2CO}-[Ala(morpholin-4-yl)][4Pal][Bip][Sar]PDRVPVRVCG-NH2; thioether N-13)
